Data source: PubChem BioAssay AID1224828 (NIAID, 2016)
Screen: 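Regulators linking TLR4 signalling to p65 nuclear translocation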 (primary screen). System: mouse RAW264.7 G9 macrophage reporter cells (GFP-p65, Tnf promoter-mCherry). Reagent: siRNA pool against mouse genes, 100 nM. Time to read-out: 2 days siRNA transfection, then 40 min LPS before fixation. Conditions: LPS (Salmonella minnesota R595) at 10 ng/ml. Detection: 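Microscopy ratio of nuclear to perinuclear-ring GFP-p65 signal, scaled to the plate median; gene score is the average of two replicate robust z-scores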. Scale: p65 translocation robust z-score: higher = more nuclear NF-kappaB p65 after LPS than the plate median; nuclear/cytoplasmic p65 ratio: higher = more nuclear NF-kappaB p65. Rule for the call: 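Called active when z exceeds 3.3 or falls under -1.56 (median of Tlr4 controls), giving activity score of at least 50; no calls for control wells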. Calls: active = hit (p65 shift raised or lowered); inactive = no clear change.
This is a random part of about 17,000 deposited reagents. In the full data, 762 (4.5%) got an active call. 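Active calls include both raised and lowered p65 entry, mostly lowered; wells with fewer than 50 cells lack a z-score.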 Raw values are not corrected between plates. Entries without a mark were called inactive. Reagents against one gene are numbered here.

Gene | pool no. | p65 translocation robust z-score | nuclear/cytoplasmic p65 ratio, rep 1 | nuclear/cytoplasmic p65 ratio, rep 2 | low cell count flag
Cyp26a1 | 1 | -0.03 | 1.53 | 1.82 | enough cells to score
Mmp1b | 1 | -0.11 | 1.8 | 1.54 | enough cells to score
Or4c127 | 1 | – | 1.41 | 1.5 | fewer than 50 cells per well; well left out of scoring
Srp19 | 1 | -0.75 | 1.23 | 1.22 | enough cells to score
Kcnh3 | 1 | 0.55 | 1.54 | 1.46 | enough cells to score
Tex13b | 1 | 1.12 | 1.34 | 1.31 | enough cells to score
Rhox5 | 1 | -3.14 (active) | 1.01 | 0.956 | enough cells to score
Ndst2 | 1 | -0.77 | 1.79 | 1.36 | enough cells to score
Fam167b | 1 | -1.58 (active) | 1.37 | 1.54 | enough cells to score
Enpp1 | 1 | -1.06 | 1.28 | 1.27 | enough cells to score
Irf1 | 1 | 0.55 | 1.55 | 1.45 | enough cells to score
Wdr35 | 1 | -0.15 | 1.3 | 1.31 | enough cells to score
4933404G15Rik | 1 | – | 1.13 | 1.11 | fewer than 50 cells per well; well left out of scoring
Map3k7 | 1 | 0.26 | 2.12 | 1.41 | enough cells to score
Zmat3 | 1 | -0.59 | 1.57 | 1.38 | enough cells to score
Serpinb6a | 1 | 0.16 | 1.53 | 1.62 | enough cells to score
Ralyl | 1 | -0.33 | 1.38 | 1.51 | enough cells to score
Tmem140 | 1 | -0.14 | 1.51 | 1.43 | enough cells to score
Rgs6 | 1 | 0.55 | 1.62 | 1.63 | enough cells to score
Bpnt2 | 1 | -0.79 | 1.49 | 1.5 | enough cells to score
Pole3 | 1 | -0.33 | 1.33 | 1.16 | enough cells to score
Pus7 | 1 | -1.32 | 1.27 | 1.34 | enough cells to score
Gabrb2 | 1 | 0.3 | 1.34 | 1.54 | enough cells to score
Gabrb2 | 2 | 2.16 | 1.68 | 1.86 | enough cells to score
Hrg | 1 | -0.45 | 1.37 | 1.33 | enough cells to score
Dmrtc1a | 1 | 1.07 | 1.41 | 1.38 | enough cells to score
Cul2 | 1 | -0.94 | 1.36 | 1.24 | enough cells to score
Fam216b | 1 | 1.19 | 1.7 | 1.76 | enough cells to score
Npy6r | 1 | 0.92 | 1.87 | 1.66 | enough cells to score
Or2ag13 | 1 | -0.17 | 1.3 | 1.25 | enough cells to score
Rtn4rl2 | 1 | -0.46 | 1.48 | 1.43 | enough cells to score
Cdh8 | 1 | -0.52 | 1.37 | 1.33 | enough cells to score
Txndc5 | 1 | -0.21 | 1.46 | 1.49 | enough cells to score
Katnbl1 | 1 | 0.02 | 1.31 | 1.55 | enough cells to score
Or9g8 | 1 | 2.69 | 2.05 | 1.99 | enough cells to score
Fes | 1 | 0.7 | 1.9 | 1.4 | enough cells to score
Gprin1 | 1 | – | 1.02 | 1.38 | fewer than 50 cells per well; well left out of scoring

Hits (from the list above):
Gene | pool no. | p65 translocation robust z-score | nuclear/cytoplasmic p65 ratio, rep 1 | nuclear/cytoplasmic p65 ratio, rep 2 | low cell count flag
Rhox5 | 1 | -3.14 (active) | 1.01 | 0.956 | enough cells to score
Fam167b | 1 | -1.58 (active) | 1.37 | 1.54 | enough cells to score

Next records:
Gene | pool no. | p65 translocation robust z-score | nuclear/cytoplasmic p65 ratio, rep 1 | nuclear/cytoplasmic p65 ratio, rep 2 | low cell count flag
Champ1 | 1 | -0.04 | 1.58 | 1.52 | enough cells to score
Paqr8 | 1 | – | 1.55 | 1.66 | fewer than 50 cells per well; well left out of scoring
Nenf | 1 | -1.45 | 1.44 | 1.29 | enough cells to score
Erp29 | 1 | -1.84 (active) | 1.34 | 1.19 | enough cells to score
Tceal6 | 1 | -1.69 (active) | 1.28 | 1.24 | enough cells to score
Tnfaip2 | 1 | 0.02 | 1.63 | 1.41 | enough cells to score
Abcc2 | 1 | 0.58 | 1.67 | 1.73 | enough cells to score
Mboat7 | 1 | -0.89 | 1.47 | 1.49 | enough cells to score
Wrap53 | 1 | -1.17 | 1.44 | 1.61 | enough cells to score
Wnt10a | 1 | 0.44 | 1.64 | 1.65 | enough cells to score
Slc2a2 | 1 | 0.68 | 1.61 | 1.61 | enough cells to score
Tpcn1 | 1 | – | 1.59 | 1.24 | fewer than 50 cells per well; well left out of scoring
Reep1 | 1 | – | 1.31 | 1.52 | fewer than 50 cells per well; well left out of scoring
Dcaf17 | 1 | -0.38 | 1.27 | 1.21 | enough cells to score
Ndufa5 | 1 | -1.57 (active) | 1.47 | 1.4 | enough cells to score
Vmn1r185 | 1 | – | 1.41 | 1.24 | fewer than 50 cells per well; well left out of scoring
BC035947 | 1 | -0.57 | 1.56 | 1.67 | enough cells to score
Obscn | 1 | 1.8 | 1.92 | 1.66 | enough cells to score
Orc3 | 1 | 0.43 | 1.45 | 1.33 | enough cells to score
Lhfpl6 | 1 | 0.33 | 1.58 | 1.74 | enough cells to score
Plxnb3 | 1 | -0.28 | 1.49 | 1.34 | enough cells to score
Lpcat4 | 1 | -0.45 | 1.59 | 1.56 | enough cells to score
